These are yes or no findings as the source states them, for the method shown. Binding seen in cells or lysates may run through a third protein. Here binding means that the protein was enriched with, or labelled near, the bait; the list need not be complete.
Biological target: chromodomain helicase DNA-binding protein 4 (CHD4), wild type, mouse (mouse (endogenous in embryonic hearts)), Q6PDQ2
Experiment: affinity purification with mass spectrometry
Details: remark: other sources report otherwise

B1: SMARCA5, Q91ZW3 1-1051 (protein)
chain: MSSAVEPPPPPPPESAPSKPSAAGAGGSSSGNKGGPEGGAAPAAPCAAGSGPADTEMEEVFDHGSPGKQKEIQEPDPTYEEKMQTDRANRFEYLLKQTELFAHFIQPAAQKTPTSPLKMKPGRPRVKKDEKQNLLSVGDYRHRRTEQEEDEELLTESSKATNVCTRFEDSPSYVKWGKLRDYQVRGLNWLISLYENGINGILADEMGLGKTLQTISLLGYMKHYRNIPGPHMVLVPKSTLHNWMSEFKKWVPTLRSVCLIGDKEQRAAFVRDVLLPGEWDVCVTSYEMLIKEKSVFKKFNWRYLVIDEAHRIKNEKSKLSEIVREFKTTNRLLLTGTPLQNNLHELWSLLNFLLPDVFNSADDFDSWFDTNNCLGDQKLVERLHMVLRPFLLRRIKADVEKSLPPKKEVKIYVGLSKMQREWYTRILMKDIDILNSAGKMDKMRLLNILMQLRKCCNHPYLFDGAEPGPPYTTDMHLVTNSGKMVVLDKLLPKLKEQGSRVLIFSQMTRVLDILEDYCMWRNYEYCRLDGQTPHDERQDSINAYNEPNSTKFVFMLSTRAGGLGINLATADVVILYDSDWNPQVDLQAMDRAHRIGQTKTVRVFRFITDNTVEERIVERAEMKLRLDSIVIQQGRLVDQNLNKIGKDEMLQMIRHGATHVFASKESEITDEDIDGILERGAKKTAEMNEKLSKMGESSLRNFTMDTESSVYNFEGEDYREKQKIAFTEWIEPPKRERKANYAVDAYFREALRVSEPKAPKAPRPPKQPNVQDFQFFPPRLFELLEKEILYYRKTIGYKVPRSPDLPNAAQAQKEEQLKIDEAEPLNDEELEEKEKLLTQGFTNWNKRDFNQFIKANEKWGRDDIENIAREVEGKTPEEVIEYSAVFWERCNELQDIEKIMAQIERGEARIQRRISIKKALDTKIGRYKAPFHQLRISYGTNKGKNYTEEEDRFLICMLHKLGFDKENVYDELRQCIRNSPQFRFDWFLKSRTAMELQRRCNTLITLIERENMELEEKEKAEKKKRGPKPSTQKRKMDGAPDGRGRKKKLKL
- binding: binds
